PubChem BioAssay AID504764 – Drosophila RNAi Screening Center – 2011
In all, the deposit lists about 22,000 reagents; shown is an unselected part of those with a known target gene and a result. Of all reagents, 403 (1.9%) are marked active. 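Unnormalised raw counts per well; ratio z-scores behind the hit calls and whether each hit raises or lowers signal are not deposited.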 No sequences are given here. Not stated in the record: the amount of reagent.

Aim: 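Genome-wide screen for regulators of Notch-driven gene expression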 (primary screen)
Cell system: Drosophila Kc167 cells
Reagents: long dsRNA against Drosophila genes
Timing: about 5 days (4 days dsRNA, then 24 h after transfection)
Conditions: transfection of constitutively active membrane-tethered Notch lacking the extracellular domain, read 24 h later
Measurement: 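Light from a Notch-responsive E(spl)m3 luciferase reporter under active Notch, with control-promoter and no-Notch reporter wells to normalise; raw counts from paired wells a and b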
Scale: induced reporter light, run 1, well a and induced reporter light, run 1, well b: higher = more light from the Notch target reporter with active Notch; control promoter light, run 1, well a and control promoter light, run 1, well b: higher = more light from the viral control promoter (cell number, transfection, viability); uninduced reporter light, run 1, well a: higher = more light from the Notch target reporter without active Notch
Call rule: 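Wells with low control signal or poorly matching duplicates excluded; duplicates averaged; per source plate, z beyond ±2 for induced/control log2 ratio or beyond ±1.8 for induced/uninduced marks a hit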
Meaning of the calls: active = modifier hit (raised or lowered Notch signal); inactive = not a hit

CG14204 [DRSC19559]: induced reporter light, run 1, well a = 1.15e5; induced reporter light, run 1, well b = 1.04e5; control promoter light, run 1, well a = 1.29e5; control promoter light, run 1, well b = 1.18e5; uninduced reporter light, run 1, well a = 12705; call = inactive
CG4073 [DRSC15542]: induced reporter light, run 1, well a = 80570; induced reporter light, run 1, well b = 93640; control promoter light, run 1, well a = 74850; control promoter light, run 1, well b = 51375; uninduced reporter light, run 1, well a = 3850; call = inactive
DIP-gamma [DRSC14873]: induced reporter light, run 1, well a = 1.94e5; induced reporter light, run 1, well b = 2.10e5; control promoter light, run 1, well a = 2.76e5; control promoter light, run 1, well b = 2.62e5; uninduced reporter light, run 1, well a = 14455; call = inactive
Or42b [DRSC04913]: induced reporter light, run 1, well a = 2.53e5; induced reporter light, run 1, well b = 2.32e5; control promoter light, run 1, well a = 2.08e5; control promoter light, run 1, well b = 2.44e5; uninduced reporter light, run 1, well a = 15030; call = inactive
CG4101 [DRSC10400]: induced reporter light, run 1, well a = 1.48e5; induced reporter light, run 1, well b = 1.29e5; control promoter light, run 1, well a = 2.14e5; control promoter light, run 1, well b = 1.55e5; uninduced reporter light, run 1, well a = 7640; call = inactive
Ankrd49 [DRSC01894]: induced reporter light, run 1, well a = 1.06e5; induced reporter light, run 1, well b = 1.15e5; control promoter light, run 1, well a = 1.12e5; control promoter light, run 1, well b = 1.45e5; uninduced reporter light, run 1, well a = 10375; call = inactive
Pph13 [DRSC00775]: induced reporter light, run 1, well a = 53335; induced reporter light, run 1, well b = 51395; control promoter light, run 1, well a = 31865; control promoter light, run 1, well b = 33760; uninduced reporter light, run 1, well a = 11278; call = inactive
png [DRSC18582]: induced reporter light, run 1, well a = 1.37e5; induced reporter light, run 1, well b = 1.21e5; control promoter light, run 1, well a = 2.36e5; control promoter light, run 1, well b = 2.48e5; uninduced reporter light, run 1, well a = 9090; call = inactive
CG34047 (retired record) [DRSC07857]: induced reporter light, run 1, well a = 2.10e5; induced reporter light, run 1, well b = 1.83e5; control promoter light, run 1, well a = 2.75e5; control promoter light, run 1, well b = 2.38e5; uninduced reporter light, run 1, well a = 18365; call = inactive
CG4849 [DRSC15662]: induced reporter light, run 1, well a = 17415; induced reporter light, run 1, well b = 17750; control promoter light, run 1, well a = 13385; control promoter light, run 1, well b = 19895; uninduced reporter light, run 1, well a = 840; call = inactive

An excerpt of the results above, as a working copy:
Or42b [DRSC04913]: induced reporter light, run 1, well a = 2.53e5; induced reporter light, run 1, well b = 2.32e5; control promoter light, run 1, well a = 2.08e5; control promoter light, run 1, well b = 2.44e5; uninduced reporter light, run 1, well a = 15030; call = inactive
CG4101 [DRSC10400]: induced reporter light, run 1, well a = 1.48e5; induced reporter light, run 1, well b = 1.29e5; control promoter light, run 1, well a = 2.14e5; control promoter light, run 1, well b = 1.55e5; uninduced reporter light, run 1, well a = 7640; call = inactive

Next reagents follow:
CG4768 [DRSC19917]: induced reporter light, run 1, well a = 1.28e5; induced reporter light, run 1, well b = 1.18e5; control promoter light, run 1, well a = 1.34e5; control promoter light, run 1, well b = 1.13e5; uninduced reporter light, run 1, well a = 10525; call = active
CG14949 [DRSC08408]: induced reporter light, run 1, well a = 1.35e5; induced reporter light, run 1, well b = 1.13e5; control promoter light, run 1, well a = 1.82e5; control promoter light, run 1, well b = 1.18e5; uninduced reporter light, run 1, well a = 6365; call = inactive
EMRE [DRSC06686]: induced reporter light, run 1, well a = 31895; induced reporter light, run 1, well b = 35180; control promoter light, run 1, well a = 43575; control promoter light, run 1, well b = 36580; uninduced reporter light, run 1, well a = 3240; call = inactive
CG5906 [DRSC10557]: induced reporter light, run 1, well a = 1.18e5; induced reporter light, run 1, well b = 1.45e5; control promoter light, run 1, well a = 1.73e5; control promoter light, run 1, well b = 1.36e5; uninduced reporter light, run 1, well a = 7585; call = inactive
CG42323 [DRSC19629]: induced reporter light, run 1, well a = 60410; induced reporter light, run 1, well b = 71615; control promoter light, run 1, well a = 69240; control promoter light, run 1, well b = 58745; uninduced reporter light, run 1, well a = 8265; call = inactive
CG42323 [DRSC21397]: call = inactive
CG42238 [DRSC03180]: induced reporter light, run 1, well a = 2.33e5; induced reporter light, run 1, well b = 2.07e5; control promoter light, run 1, well a = 1.64e5; control promoter light, run 1, well b = 1.64e5; uninduced reporter light, run 1, well a = 15090; call = inactive
HHEX [DRSC16186]: induced reporter light, run 1, well a = 1.07e5; induced reporter light, run 1, well b = 94290; control promoter light, run 1, well a = 1.58e5; control promoter light, run 1, well b = 1.45e5; uninduced reporter light, run 1, well a = 8385; call = inactive
